Assay results as given in US20250154235A1.
Results are given in words; binding and its absence hold for the method and conditions named.

What was measured:
HTT [1] = assay: direct ELISA on coated proteins, antibody at 20 nM, fold over background
Tau [2] = assay: as above
C9ORF72 [3] = assay: as above
TDP-43 [4] = assay: as above
IAPP [5] = assay: as above
HTT [6] = assay: direct ELISA on coated proteins, antibody at 4 nM, fold over background
Tau [7] = assay: as above
C9ORF72 [8] = assay: as above
TDP-43 [9] = assay: as above
IAPP [10] = assay: as above

binding (HTT [1]): no binding (tested: 20 nM)
binding (Tau [2]): no binding (tested: 20 nM)
binding (C9ORF72 [3]): no binding (tested: 20 nM)
binding (TDP-43 [4]): no binding (tested: 20 nM)
binding (IAPP [5]): no binding (tested: 20 nM)
binding (HTT [6]): no binding (tested: 4 nM)
binding (Tau [7]): no binding (tested: 4 nM)
binding (C9ORF72 [8]): no binding (tested: 4 nM)
binding (TDP-43 [9]): no binding (tested: 4 nM)
binding (IAPP [10]): no binding (tested: 4 nM)
B1: NI-301.44E4 (antibody, V domains shown)
VH: EVQLVESGGGLVQPGGSLRLSCAASGFTFSSYAMIWVRQAPGKGLEWVSGISGSGSTTYYADSVKGRFAISRDKSKNTLSLQMNSLRAEDTAVYYCAKGAWEIPTYFDNWGQGTLVTVSS
VL: EIVLTQSPATLSVSPGERATLSCRASQSIRNNLAWYQQKPGQAPRLLIYGASTRATGIPARFSGTGSGTEFTLIVSSLQSEDFAVYYCQQYNNWPPTWTFGQGTKVEIK
